Results are given in words; binding and its absence hold for the method and conditions named. For some assays here: Binding seen in cells or lysates may run through a third protein. Some entries that bind do so weakly or less than the wild type.

Amino acid sequences for entries named in this document (tags omitted). A change or cut given only in a name is not applied to a line headed by its entry.
UniProt P40763: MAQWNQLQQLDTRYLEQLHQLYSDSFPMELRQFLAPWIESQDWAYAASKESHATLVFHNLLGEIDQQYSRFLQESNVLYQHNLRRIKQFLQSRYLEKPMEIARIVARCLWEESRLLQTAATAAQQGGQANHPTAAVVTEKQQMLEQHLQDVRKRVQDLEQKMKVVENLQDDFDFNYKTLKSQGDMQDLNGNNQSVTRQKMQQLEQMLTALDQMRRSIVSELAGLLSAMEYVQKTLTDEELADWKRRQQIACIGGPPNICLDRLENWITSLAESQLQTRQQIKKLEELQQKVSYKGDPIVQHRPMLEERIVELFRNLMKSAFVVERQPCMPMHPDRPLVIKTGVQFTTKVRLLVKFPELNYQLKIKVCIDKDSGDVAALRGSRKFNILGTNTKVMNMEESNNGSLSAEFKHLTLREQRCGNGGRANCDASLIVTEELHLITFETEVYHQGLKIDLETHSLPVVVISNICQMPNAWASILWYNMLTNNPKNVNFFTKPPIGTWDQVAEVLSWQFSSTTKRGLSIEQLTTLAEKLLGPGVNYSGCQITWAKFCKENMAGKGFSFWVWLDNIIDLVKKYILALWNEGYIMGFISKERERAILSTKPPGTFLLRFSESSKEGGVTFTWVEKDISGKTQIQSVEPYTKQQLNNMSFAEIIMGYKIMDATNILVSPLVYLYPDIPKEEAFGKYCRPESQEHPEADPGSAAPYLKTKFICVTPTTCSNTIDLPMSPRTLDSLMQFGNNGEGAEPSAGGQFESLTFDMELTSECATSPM
UniProt P19525: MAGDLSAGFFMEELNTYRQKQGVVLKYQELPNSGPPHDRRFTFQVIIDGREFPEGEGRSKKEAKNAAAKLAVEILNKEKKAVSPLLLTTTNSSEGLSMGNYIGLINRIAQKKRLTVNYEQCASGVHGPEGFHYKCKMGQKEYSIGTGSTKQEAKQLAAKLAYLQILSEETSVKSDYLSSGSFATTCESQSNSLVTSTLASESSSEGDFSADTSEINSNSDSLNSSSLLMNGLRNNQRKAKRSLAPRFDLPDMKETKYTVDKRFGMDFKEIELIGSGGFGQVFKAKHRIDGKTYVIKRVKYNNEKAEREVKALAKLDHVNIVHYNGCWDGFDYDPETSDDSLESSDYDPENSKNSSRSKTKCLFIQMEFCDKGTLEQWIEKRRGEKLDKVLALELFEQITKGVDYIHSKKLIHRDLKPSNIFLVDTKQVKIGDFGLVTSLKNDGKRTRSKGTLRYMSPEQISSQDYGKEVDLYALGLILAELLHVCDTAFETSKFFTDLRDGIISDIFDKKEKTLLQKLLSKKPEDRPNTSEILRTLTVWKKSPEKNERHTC

The text below walks through data of PMC9348600.

The target in one assay is GST-STAT3 fusion protein (UniProt P40763). In words: pull-down; 20 μg GST-STAT3 or GST held on Glutathione Magnetic Beads in PBS (2 h, 4 °C); 20 μg His-tagged PKR added, overnight at 4 °C; washed with PBS; blot with anti-PKR and Coomassie stain; both purified.
For assay [1], the target named is signal transducer and activator of transcription 3 (STAT3), endogenous in HCC cells (human (endogenous in Huh7 and HepG2.2.15)) (UniProt P40763). As to the kind of experiment: co-IP; Huh7 and HepG2.2.15 cell lysates in RIPA buffer, with or without STAT3-shRNA knock-down, incubated with anti-STAT3 antibody or IgG and Protein A/G Magnetic Beads at 4 °C overnight; washed with PBS; blot with anti-STAT3 and anti-PKR.

As to “His-tagged PKR (from UniProt P19525 1-551)”, the binding entry in the assay with GST-STAT3 fusion protein is reported as “binds”. Take “eIF2α kinase PKR, endogenous in HCC cells (from UniProt P19525 1-551)”: the binding entry in assay [1] is given as “binds”.
